Results are given in words; binding and its absence hold for the method and conditions named. Binding seen in cells or lysates may run through a third protein. Some binding calls cover weakened binding; strength is not graded here. Where a sequence is shown, tags or fusion partners need not be part of it.
Target: T1, hepatocyte nuclear factor 4α (HNF4α) (human (endogenous in HepG2)) (UniProt P41235)
T1 sequence: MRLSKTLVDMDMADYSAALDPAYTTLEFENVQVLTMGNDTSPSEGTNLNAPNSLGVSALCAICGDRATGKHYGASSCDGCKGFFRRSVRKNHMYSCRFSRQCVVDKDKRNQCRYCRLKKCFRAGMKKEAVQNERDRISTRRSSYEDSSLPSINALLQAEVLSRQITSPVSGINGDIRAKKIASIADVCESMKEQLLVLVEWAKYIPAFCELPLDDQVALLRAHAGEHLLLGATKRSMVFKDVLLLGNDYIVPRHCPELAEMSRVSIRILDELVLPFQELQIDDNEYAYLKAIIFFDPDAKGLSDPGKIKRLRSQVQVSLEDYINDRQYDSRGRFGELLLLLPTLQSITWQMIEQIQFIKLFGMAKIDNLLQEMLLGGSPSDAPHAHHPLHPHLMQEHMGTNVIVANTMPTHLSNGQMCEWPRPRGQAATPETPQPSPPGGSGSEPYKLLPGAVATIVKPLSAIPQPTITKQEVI
Assay: co-IP; HNF4α immunoprecipitated with anti-HNF4α antibody (or IgG control) and protein A agarose from lysates of HepG2 cells infected with adenovirus for HA-lipin 1β or lipin 1(LXXFF); NP40 lysis buffer (20 mM Tris HCl, 100 mM NaCl, 0.5% NP40, 0.5 mM EDTA); blot with anti-HA

B1: lipin 1β (924 amino acid form of mouse lipin 1), HA-tagged (natural protein, UniProt Q91ZP3 1-924, looked up)
chain: MNYVGQLAGQVFVTVKELYKGLNPATLSGCIDIIVIRQPNGSLQCSPFHVRFGKMGVLRSREKVVDIEINGESVDLHMKLGDNGEAFFVQETDNDQEIIPMYLATSPILSEGAARMESQLKRNSVDRIRCLDPTTAAQGLPPSDTPSTGSLGKKRRKRRRKAQLDNLKRDDNVNSSEDEDMFPIEMSSDEDTAPMDGSRTLPNDVPPFQDDIPKENFPSISTHPQSASYPSSDREWSPSPSSLVDCQRTPPHLAEGVLSSSCPLQSCHFHASESPSGSRPSTPKSDSELVSKSADRLTPKNNLEMLWLWGELPQAAKSSSPHKMKESSPLGSRKTPDKMNFQAIHSESSDTFSDQSPTMARGLLIHQSKAQTEMQFVNEEDLESLGAAAPPSPVAEELKAPYPNTAQSSSKTDSPSRKKDKRSRHLGADGVYLDDLTDMDPEVAALYFPKNGDPGGLPKQASDNGARSANQSPQSVGGSGIDSGVESTSDSLRDLPSIAISLCGGLSDHREITKDAFLEQAVSYQQFADNPAIIDDPNLVVKVGNKYYNWTTAAPLLLAMQAFQKPLPKATVESIMRDKMPKKGGRWWFSWRGRNATIKEESKPEQCLTGKGHNTGEQPAQLGLATRIKHESSSSDEEHAAAKPSGSSHLSLLSNVSYKKTLRLTSEQLKSLKLKNGPNDVVFSVTTQYQGTCRCEGTIYLWNWDDKVIISDIDGTITRSDTLGHILPTLGKDWTHQGIAKLYHKVSQNGYKFLYCSARAIGMADMTRGYLHWVNERGTVLPQGPLLLSPSSLFSALHREVIEKKPEKFKVQCLTDIKNLFFPNTEPFYAAFGNRPADVYSYKQVGVSLNRIFTVNPKGELVQEHAKTNISSYVRLCEVVDHVFPLLKRSHSCDFPCSDTFSNFTFWREPLPPFENQDMHSASA
With B1 the binding was “binds”.

Reference: paper PMC3517414, “Complex Interplay between the Lipin 1 and the Hepatocyte Nuclear Factor 4 α (HNF4α) Pathways to Regulate Liver Lipid Metabolism” (PLoS ONE, 2012)
